Assay results taken from patent US20190300832A1, “METHOD AND KIT FOR EXPANDING CIRCULATING TUMOR CELLS IN VITRO” (Taipei Medical University, priority 2018, published 2019).
Some of these results come from one statement about several compounds together.

Test system: circulating tumor cells derived from patients with small cell lung cancer
Assay: CellTiter Luminescent cell viability of expanded circulating tumor cells treated with drugs
Assay type: cell-based, human
Conditions: relative to control group Ctrl
Description: In some embodiments, the preparation of the cell solution can be performed as follows. 5 ml of blood is sampled respectively patients having breast cancer, pancreatic cancer, and small cell lung cancer. 15 ml of Ficoll-Paque is added to a Leucosep™ centrifuge tube and centrifuged. The blood is diluted in phosphate buffered saline (PBS) and transferred to the Leucosep™ centrifuge tube, followed by centrifugation. After centrifugation, the supernatant in the Leucosep™ centrifuge tube is removed, and the retained lower solution is a monocyte phase. A circulating tumor cell enriched antibody mixture (RosetteSep™ CTC Enrichment Cocktail Containing AntiCD56) is added to the monocyte phase, and mixed at room temperature. After mixing, a PBS buffer containing 2% (v/v) Fetal Bovine Serum (FSB) is added and mixed to give a monocyte solution. Also, the monocyte solution is added to Ficoll-Paque and centrifuged at room temperature. Next, the concentrated cells were removed from the intermediate layer obtained after the centrifugation, and the concentrated cells were washed with a PBS buffer solution containing 2% (v/v) FBS. Here, a concentrated cell solution containing the circulating tumor cells 21 (derived from small cell lung cancer, breast cancer, or pancreatic cancer) is obtained.
The culture medium 22 is added to each well of the cell culture tool 10. Then, the concentrated cell solution containing the circulating tumor cells 21 is added to the culture medium 22 to form the cell solution 20 and then cultured. […]
According to the above procedure, the circulating tumor cells 21 are isolated from the blood of two patients with small cell lung cancer and cultured. […] The cell viability was measured by CellTiter Luminescent cell viability and the survival rate is calculated by the following formula:
Cell survival rate (%)=(luminescence density in the treated group/luminescence density in the control group)×100%. […]

[1] = circulating tumor cells from blood of the first small cell lung cancer patient, FIG. 54

SMILES	Cell survival rate [1]	Cell survival rate (expanded circulating tumor cells from the second small cell lung cancer patient, FIG. 55)
COc1cc([C@@H]2c3cc4c(cc3[C@@H](O[C@@H]3O[C@@H]5CO[C@@H](C)O[C@H]5[C@H](O)[C@H]3O)[C@H]3COC(=O)[C@H]23)OCO4)cc(OC)c1O [etoposide]	more than 85%	
CC[C@@]1(O)C(=O)OCc2c1cc1n(c2=O)Cc2cc3c(CN(C)C)c(O)ccc3nc2-1 [Topotecan]	more than 85%	less than 20%
